For at least one entry, the source does not settle the construct or the ends of the probe. A weaker result is weaker than the reference pair of the same experiment. For part of these data: Protein sequences can lack the tags named with them.
What was measured:
[1] = molecular target: T1, human alpha-CGRP (Homo sapiens) (UniProt P06881); test: SPR; details: L-RNA, synthetic protein, mirror-image nucleic acid
T1 sequence: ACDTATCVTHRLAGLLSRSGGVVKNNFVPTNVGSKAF

Protein sequences, listed by entry. Tags and fused reporters are not part of them. Residues count along the entry.
UniProt P01275, 53-81: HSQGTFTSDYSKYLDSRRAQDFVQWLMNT

[2] = molecular target: biotinylated human glucagon (Homo sapiens) (UniProt P01275); test: competition with a labelled probe; details: L-DNA, synthetic protein

“CCGUGCUGUCGGAGACUACUCGUCGAGTAGAAAUAGGUCCCCUCCCACGG [226-F2-001-D28]”: binds ([1]; dT at 28, improved vs parent, 37 C, synthetic backbone).
“CCGUGCUGUCGGAGACUACUCGUCGAGUAGAAAUAGGUCCCCUCCCACGG [226-F2-001-D18]”: binds more weakly ([1]; dA at 18, reduced or lost binding vs parent, variant of 226-F2-001).
“CCGUGCUGUCGGAGACUACUCGUCGAGUAGAAAUAGGUCCCCTCCCACGG [226-F2-001-D43]”: binds more weakly ([1]; dT at 43, reduced or lost binding vs parent, variant of 226-F2-001).
“CCGUGCUGUCGGAGACTACUCGUCGAGUAGAAAUAGGUCCCCUCCCACGG [226-F2-001-D17]”: binds more weakly ([1]; dT at 17, reduced or lost binding vs parent, variant of 226-F2-001).
“CCGUGCUGUCGGAGACUACUCGUCGAGUAGAAAUAGGUCCCCUCCCACGG [226-F2-001-D10]”: binds more weakly ([1]; dC at 10, reduced or lost binding vs parent, variant of 226-F2-001).
“CCGUGCUGUCGGAGACUACUCGUCGAGUAGAAAUAGGUCCCCUCCCACGG [226-F2-001-D05]”: binds ([1]; 2'-deoxy at 5, improved vs parent, 37 C, synthetic backbone).
“CCGUGCUGUCGGAGACUACUCGUCGAGUAGAAAUAGGUCCCCUCCCACGG [226-F2-001-D24]”: binds ([1]; 2'-deoxy at 24, improved vs parent, 37 C, synthetic backbone).
“CCGUGCUGUCGGAGACUACUCGUCGAGUAGAAAUAGGUCCCCUCCCACGG [226-F2-001-D47]”: binds ([1]; 2'-deoxy at 47, improved vs parent, 37 C, synthetic backbone).
“GCAGTGGGGAAATGGGAGGGCTAGGTGGAAGGAATCTGAGCTACTGC [257-E1-R18/29/30-001]”: binds ([2]; rG at 18, rA at 29, 30, better than R29/30, weaker than R15/29/30, mirror-image nucleic acid, variant of 257-E1-001).
“GCAGTGGGGAAATGGGAGGGCTAGGTGGAAGGAAUCTGAGCTACTGC [257-E1-R35-001]”: binds more weakly ([2]; rU at 35, reduced or lost vs parent, 37 C, synthetic backbone, mirror-image nucleic acid).
“GCAGTGGGGAAATGGGAGGGCTAGGTGGAAGGAATCTGAGCTACTGC [257-E1-R11-001]”: binds more weakly ([2]; ribo at 11, reduced or lost vs parent, 37 C, synthetic backbone, mirror-image nucleic acid).
“GCAGTGGGGAAATGGGAGGGCTAGGUGGAAGGAATCTGAGCTACTGC [257-E1-R26-001]”: binds ([2]; rU at 26, affinity unchanged vs parent, mirror-image nucleic acid, variant of 257-E1-001).
“GCAGTGGGGAAATGGGAGGGCTAGGTGGAAGGAATCTGAGCTACTGC [257-E1-R41-001]”: binds more weakly ([2]; ribo at 41, reduced or lost vs parent, 37 C, synthetic backbone, mirror-image nucleic acid).
“GCAGTGGGGAAATGGGAGGGCTAGGTGGAAGGAATCTGAGCTACTGC [257-E1-R6-001]”: binds more weakly ([2]; rG at 6, reduced or lost binding vs parent, mirror-image nucleic acid, variant of 257-E1-001).
“GCAGTGGGGAAATGGGAGGGCTAGGTGGAAGGAATCTGAGCTACTGC [257-E1-R39-001]”: binds more weakly ([2]; ribo at 39, reduced or lost vs parent, 37 C, synthetic backbone, mirror-image nucleic acid).
“GCAGTGGGGAAATGGGAGGGCTAGGTGGAAGGAATCTGAGCTACTGC [257-E1-R2-001]”: binds more weakly ([2]; rC at 2, reduced or lost binding vs parent, mirror-image nucleic acid, variant of 257-E1-001).
“GCAGTGGGGAAATGGGAGGGCTAGGTGGAAGGAATCTGAGCTACTGC [257-E1-R20-001]”: binds more weakly ([2]; ribo at 20, reduced or lost vs parent, 37 C, synthetic backbone, mirror-image nucleic acid).
“GCAGTGGGGAAATGGGAGGGCTAGGTGGAAGGAATCTGAGCTACTGC [257-E1-R15/18/29/30-001]”: binds ([2]; rG at 15, 18, rA at 29, 30, no further improvement over R15/29/30, mirror-image nucleic acid, variant of 257-E1-001).
“GCAGUGGGGAAATGGGAGGGCTAGGTGGAAGGAATCTGAGCTACTGC [257-E1-R5-001]”: binds more weakly ([2]; rU at 5, printed as 257-E5-R1-001 (position 5), reduced or lost, 37 C, 1 mM Mg, 1 mM Ca, synthetic backbone, mirror-image nucleic …).
“GCAGTGGGGAAATGGGAGGGCTAGGTGGAAGGAATCTGAGCTACTGC [257-E1-R38-001]”: binds more weakly ([2]; ribo at 38, reduced or lost vs parent, 37 C, synthetic backbone, mirror-image nucleic acid).
“GCAGTGGGGAAATGGGAGGGCTAGGTGGAAGGAATCTGAGCTACTGC [257-E1-R27-001]”: binds more weakly ([2]; ribo at 27, reduced or lost vs parent, 37 C, synthetic backbone, mirror-image nucleic acid).
“GCAGTGGGGAAATGGGAGGGCTAGGTGGAAGGAATCTGAGCUACTGC [257-E1-R42-001]”: binds more weakly ([2]; rU at 42, reduced or lost vs parent, 37 C, synthetic backbone, mirror-image nucleic acid).
“GCAGTGGGGAAATGGGAGGGCTAGGTGGAAGGAATCTGAGCTACTGC [257-E1-R15-001]”: binds ([2]; rG at 15, improved vs parent, among best, competitive pull-down, mirror-image nucleic acid, variant of 257-E1-001).
“GCAGTGGGGAAATGGGAGGGCTAGGTGGAAGGAATCTGAGCTACTGC [257-E1-R10-001]”: binds more weakly ([2]; rA at 10, reduced or lost binding vs parent, mirror-image nucleic acid, variant of 257-E1-001).
“GCAGTGGGGAAATGGGAGGGCTAGGTGGAAGGAATCTGAGCTACTGC [257-E1-R34-001]”: binds more weakly ([2]; ribo at 34, reduced or lost vs parent, 37 C, synthetic backbone, mirror-image nucleic acid).
“GCAGTGGGGAAATGGGAGGGCTAGGTGGAAGGAATCTGAGCTACTGC [257-E1-R16-001]”: binds more weakly ([2]; ribo at 16, reduced or lost vs parent, 37 C, synthetic backbone, mirror-image nucleic acid).
“GCAGTGGGGAAATGGGAGGGCTAGGTGGAAGGAATCTGAGCTACTGC [257-E1-R36-001]”: binds more weakly ([2]; ribo at 36, reduced or lost vs parent, 37 C, synthetic backbone, mirror-image nucleic acid).
“GCAGTGGGGAAAUGGGAGGGCTAGGTGGAAGGAATCTGAGCTACTGC [257-E1-R13-001]”: binds more weakly ([2]; rU at 13, reduced or lost vs parent, 37 C, synthetic backbone, mirror-image nucleic acid).
“GCAGTGGGGAAATGGGAGGGCTAGGTGGAAGGAATCTGAGCTACTGC [257-E1-R1-001]”: binds more weakly ([2]; rG at 1, reduced or lost binding vs parent, mirror-image nucleic acid, variant of 257-E1-001).
“GCAGTGGGGAAATGGGAGGGCTAGGTGGAAGGAATCTGAGCTACTGC [257-E1-R28-001]”: binds more weakly ([2]; ribo at 28, reduced or lost vs parent, 37 C, synthetic backbone, mirror-image nucleic acid).
“GCAGTGGGGAAATGGGAGGGCTAGGTGGAAGGAATCTGAGCTACTGC [257-E1-R31-001]”: binds more weakly ([2]; ribo at 31, reduced or lost vs parent, 37 C, synthetic backbone, mirror-image nucleic acid).
“GCAGTGGGGAAATGGGAGGGCTAGGTGGAAGGAATCTGAGCTACTGC [257-E1-R9-001]”: binds ([2]; rG at 9, improved vs parent, competitive pull-down, mirror-image nucleic acid, variant of 257-E1-001).
“GCAGTGGGGAAATGGGAGGGCTAGGTGGAAGGAATCTGAGCTACTGC [257-E1-R19-001]”: binds ([2]; rG at 19, improved vs parent, competitive pull-down, mirror-image nucleic acid, variant of 257-E1-001).
“GCAGTGGGGAAATGGGAGGGCTAGGTGGAAGGAATCTGAGCTACTGC [257-E1-R15/29/30-001]”: binds ([2]; rG at 15, rA at 29, 30, better than R29/30, comparable to R15/29, mirror-image nucleic acid, variant of 257-E1-001).
“GCAGTGGGGAAATGGGAGGGCTAGGTGGAAGGAATCTGAGCTACTGC [257-E1-R25-001]”: binds more weakly ([2]; ribo at 25, reduced or lost vs parent, 37 C, synthetic backbone, mirror-image nucleic acid).
“GCAGTGGGGAAATGGGAGGGCTAGGTGGAAGGAATCTGAGCTACTGC [257-E1-R29/30-001]”: binds ([2]; rA at 29, 30, better than single substitutions, mirror-image nucleic acid, variant of 257-E1-001).
“GCAGTGGGGAAATGGGAGGGCTAGGTGGAAGGAATCTGAGCTACTGC [257-E1-R18-001]”: binds ([2]; rG at 18, improved vs parent, competitive pull-down, mirror-image nucleic acid, variant of 257-E1-001).
“GCAGTGGGGAAATGGGAGGGCTAGGTGGAAGGAATCUGAGCTACTGC [257-E1-R37-001]”: binds more weakly ([2]; rU at 37, reduced or lost vs parent, 37 C, synthetic backbone, mirror-image nucleic acid).
“GCAGTGGGGAAATGGGAGGGCTAGGTGGAAGGAATCTGAGCTACTGC [257-E1-R47-001]”: binds more weakly ([2]; ribo at 47, reduced or lost vs parent, 37 C, synthetic backbone, mirror-image nucleic acid).
“GCAGTGGGGAAATGGGAGGGCTAGGTGGAAGGAATCTGAGCTACTGC [257-E1-R46-001]”: binds ([2]; rG at 46, affinity unchanged vs parent, mirror-image nucleic acid, variant of 257-E1-001).
“GCAGTGGGGAAATGGGAGGGCTAGGTGGAAGGAATCTGAGCTACTGC [257-E1-R44-001]”: binds more weakly ([2]; ribo at 44, reduced or lost vs parent, 37 C, synthetic backbone, mirror-image nucleic acid).
“GCAGTGGGGAAATGGGAGGGCTAGGTGGAAGGAATCTGAGCTACTGC [257-E1-R23-001]”: binds more weakly ([2]; ribo at 23, reduced or lost vs parent, 37 C, synthetic backbone, mirror-image nucleic acid).
“GCAGTGGGGAAATGGGAGGGCTAGGTGGAAGGAATCTGAGCTACTGC [257-E1-R12-001]”: binds more weakly ([2]; ribo at 12, reduced or lost vs parent, 37 C, synthetic backbone, mirror-image nucleic acid).
“GCAGTGGGGAAATGGGAGGGCTAGGTGGAAGGAATCTGAGCTACTGC [257-E1-R32-001]”: binds more weakly ([2]; ribo at 32, reduced or lost vs parent, 37 C, synthetic backbone, mirror-image nucleic acid).
“GCAGTGGGGAAATGGGAGGGCTAGGTGGAAGGAATCTGAGCTACTGC [257-E1-R8-001]”: binds more weakly ([2]; rG at 8, reduced or lost binding vs parent, mirror-image nucleic acid, variant of 257-E1-001).

— US20140350088
